Paper PMC4747493
Results are given in words; binding and its absence hold for the method and conditions named. Binding seen in cells or lysates may run through a third protein. Some entries that bind do so weakly or less than the wild type.

Chains of the proteins cited; added tags and fusions are not shown.
UniProt Q09472: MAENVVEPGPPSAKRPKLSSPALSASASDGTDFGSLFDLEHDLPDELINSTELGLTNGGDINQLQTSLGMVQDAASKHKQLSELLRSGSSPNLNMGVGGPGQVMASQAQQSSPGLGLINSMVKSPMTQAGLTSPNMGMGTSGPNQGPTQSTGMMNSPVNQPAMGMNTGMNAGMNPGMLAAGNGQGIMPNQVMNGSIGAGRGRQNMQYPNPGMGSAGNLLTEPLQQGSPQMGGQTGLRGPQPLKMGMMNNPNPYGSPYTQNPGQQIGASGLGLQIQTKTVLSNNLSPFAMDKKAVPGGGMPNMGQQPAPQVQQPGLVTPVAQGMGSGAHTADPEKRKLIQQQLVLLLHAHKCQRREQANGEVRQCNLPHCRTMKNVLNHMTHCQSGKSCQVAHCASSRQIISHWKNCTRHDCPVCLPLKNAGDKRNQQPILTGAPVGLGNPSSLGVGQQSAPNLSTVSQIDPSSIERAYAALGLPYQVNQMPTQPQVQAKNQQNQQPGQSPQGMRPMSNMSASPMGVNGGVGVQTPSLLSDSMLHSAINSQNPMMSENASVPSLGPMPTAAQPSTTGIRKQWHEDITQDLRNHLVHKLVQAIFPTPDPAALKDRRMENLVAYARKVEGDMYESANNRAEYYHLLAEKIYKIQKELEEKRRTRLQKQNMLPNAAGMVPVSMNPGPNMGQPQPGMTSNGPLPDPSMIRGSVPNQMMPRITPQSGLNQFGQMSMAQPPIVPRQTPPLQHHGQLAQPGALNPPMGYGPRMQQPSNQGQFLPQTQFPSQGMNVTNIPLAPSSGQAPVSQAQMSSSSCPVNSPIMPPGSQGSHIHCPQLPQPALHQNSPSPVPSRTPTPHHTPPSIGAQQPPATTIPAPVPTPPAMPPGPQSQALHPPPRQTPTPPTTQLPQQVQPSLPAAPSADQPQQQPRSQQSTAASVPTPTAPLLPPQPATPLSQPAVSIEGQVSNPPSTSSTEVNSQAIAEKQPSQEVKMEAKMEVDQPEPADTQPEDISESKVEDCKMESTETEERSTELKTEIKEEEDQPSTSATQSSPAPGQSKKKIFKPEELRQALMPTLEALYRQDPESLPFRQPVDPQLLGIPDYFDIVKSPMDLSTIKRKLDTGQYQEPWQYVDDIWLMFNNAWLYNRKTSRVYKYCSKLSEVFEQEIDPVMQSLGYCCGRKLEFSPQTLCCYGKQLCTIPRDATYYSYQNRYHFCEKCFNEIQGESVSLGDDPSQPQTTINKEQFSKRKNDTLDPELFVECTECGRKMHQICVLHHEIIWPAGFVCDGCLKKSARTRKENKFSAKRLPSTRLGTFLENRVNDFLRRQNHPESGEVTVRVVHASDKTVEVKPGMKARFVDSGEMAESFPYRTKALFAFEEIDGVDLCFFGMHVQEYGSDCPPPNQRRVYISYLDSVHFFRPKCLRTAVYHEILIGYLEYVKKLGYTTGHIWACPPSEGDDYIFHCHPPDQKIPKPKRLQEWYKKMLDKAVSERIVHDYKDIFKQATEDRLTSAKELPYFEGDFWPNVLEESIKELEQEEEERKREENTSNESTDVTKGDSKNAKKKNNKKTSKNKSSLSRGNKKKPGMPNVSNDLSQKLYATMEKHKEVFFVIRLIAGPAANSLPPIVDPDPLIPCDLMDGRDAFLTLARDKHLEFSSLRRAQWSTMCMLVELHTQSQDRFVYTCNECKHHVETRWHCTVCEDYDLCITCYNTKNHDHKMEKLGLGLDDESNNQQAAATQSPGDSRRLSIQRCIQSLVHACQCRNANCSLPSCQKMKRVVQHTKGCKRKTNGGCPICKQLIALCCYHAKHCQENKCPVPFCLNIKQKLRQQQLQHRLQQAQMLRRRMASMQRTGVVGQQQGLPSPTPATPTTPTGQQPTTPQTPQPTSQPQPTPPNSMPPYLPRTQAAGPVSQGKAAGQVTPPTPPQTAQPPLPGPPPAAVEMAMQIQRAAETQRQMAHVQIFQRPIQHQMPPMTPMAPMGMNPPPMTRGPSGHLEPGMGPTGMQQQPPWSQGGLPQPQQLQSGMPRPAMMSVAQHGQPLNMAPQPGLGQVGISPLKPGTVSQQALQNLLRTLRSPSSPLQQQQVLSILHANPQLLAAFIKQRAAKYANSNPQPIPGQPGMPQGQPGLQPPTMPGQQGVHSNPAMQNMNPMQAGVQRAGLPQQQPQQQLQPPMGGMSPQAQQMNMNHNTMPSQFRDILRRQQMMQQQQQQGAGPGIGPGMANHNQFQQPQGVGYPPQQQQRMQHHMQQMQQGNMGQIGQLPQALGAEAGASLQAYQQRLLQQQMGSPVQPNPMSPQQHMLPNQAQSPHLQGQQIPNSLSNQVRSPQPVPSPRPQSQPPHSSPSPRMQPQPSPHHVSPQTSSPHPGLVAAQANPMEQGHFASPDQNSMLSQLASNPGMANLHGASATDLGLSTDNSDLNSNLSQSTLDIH

Molecular target: T1, DUSP4 (human (endogenous in MCF-7)) (UniProt Q13115)
T1 sequence: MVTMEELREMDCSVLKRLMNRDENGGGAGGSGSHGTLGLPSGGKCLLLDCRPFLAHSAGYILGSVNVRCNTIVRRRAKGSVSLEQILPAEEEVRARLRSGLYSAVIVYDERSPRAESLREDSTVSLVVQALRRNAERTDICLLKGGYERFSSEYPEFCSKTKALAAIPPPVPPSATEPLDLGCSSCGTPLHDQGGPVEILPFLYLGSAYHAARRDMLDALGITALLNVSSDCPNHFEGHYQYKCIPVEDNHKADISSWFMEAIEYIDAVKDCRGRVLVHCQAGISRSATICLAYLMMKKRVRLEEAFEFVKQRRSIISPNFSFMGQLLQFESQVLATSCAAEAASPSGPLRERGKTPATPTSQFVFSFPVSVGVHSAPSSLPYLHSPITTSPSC
Assay: co-IP; half-ChIP: nuclear extracts of MCF-7 cells treated with vehicle or PMA for 60 h (MCF-7/PMA^AD); fixed chromatin sonicated to about 500 bp; soluble chromatin fraction incubated overnight at 4°C with anti-DUSP4 (sc-17821) and Protein A magnetic beads, or no antibody control; beads boiled in loading buffer and immunoblotted

p300 phosphorylated at Ser-1834 (from UniProt Q09472 1-2414) (enzyme)
binding: binds
